Assay results published in US10369195B2, “Methods and compositions for preventing and treating damage to the heart” (MandalMed, Inc., priority 2016, dated 2019).
“Also recorded” adds a separate entry of the source.

System: interleukin (IL)-1β
Experiment: ELISA of IL-1β in plasma of rats with ischemia-reperfusion injury
Format: in vivo, rat
Procedure: The levels of the inflammatory cytokines, interleukin (IL)-1β and IL-6, were determined in the plasma of control rats and rats with ischemia-reperfusion injury at 2 days (FIG. 4) and 28 days (FIG. 5) post-injury using ELISA kits according to the instructions of the vendor (Pierce ThermoFisher).
The levels of the inflammatory cytokines, IL-1β and IL-6, were determined in the plasma of sham control rats and rats with ischemia-reperfusion injury at 28 days post-injury (FIG. 5) using ELISA kits as described in Example 2 above.

B1: Gal-3C: N-terminally truncated form of full length galectin-3, lacking the amino-terminal domain but retaining carbohydrate binding ability; 143 carboxy-terminal residues, SEQ ID NO: 3 (protein)
chain: GAPAGPLIVPYNLPLPGGVVPRMLITILGTVKPNANRIALDFQRGNDVAFHFNPRFNENNRRVIVCNTKLDNNWGREERQSVFPFESGKPFKIQVLVEPDHFKVAVNDAHLLQYNHRVKKLNEISKLGISGDIDITSASYTMI
IL-1β plasma level vs MI PBS-only controls (2 days post-MI, 600 μg/day, early window): statistically significant increase; also recorded: higher
IL-1β plasma level vs sham healthy controls (2 days post-injury, 200 and 600 μg/day, early window): higher
IL-1β plasma level vs MI PBS controls (28 days, early window treated groups): not significantly greater
IL-1β expression vs delayed PBS controls (day 28, 600 μg/d beginning 4 days post-MI (delayed window)): did not affect expression
